Screen size: about 320,000 compounds; about 22,000 (6.9%) were called active. Inconclusive results, whose numbers are uncertain, are shown with a selection of clear calls. The call rests on the fitted dose curve; in most records, active means well fitted inhibition curve with a large enough effect; inconclusive means small, poorly fitted or top-dose-only effect, or another doubt; inactive means no such curve, though single readings can be large or run the other way. A potency beside an inconclusive call is a rough fit, not a confirmed value.
assay: Primary qHTS for delayed death inhibitors of the malarial parasite plastid, 96 hour incubation; conditions: P. falciparum luciferase reporter growth; series mostly up to 28.7 µM
Summary of the method: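 Luminescence readout: decreased luciferase signal marks inhibited growth of reporter-expressing P. falciparum in infected red cells (2% hematocrit, 0.05% parasitemia final), exposed to compound two generations (96 h, 37 C, 5% CO2).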
Potency means the concentration at half of the fitted maximal effect.

Row | SMILES | Potency
1 | CC(C)CC1NC(=O)N(Cc2nc3ccccc3s2)C1=O (centres undefined) | inactive
2 | CC(Sc1nnc(N)s1)C(=O)NCc1ccc2c(c1)OCO2 (centres undefined) | inactive
3 | O=[N+]([O-])c1ccc(N(CCO)Cc2ccccc2)c([N+](=O)[O-])c1 | inconclusive: 3.7 µM [inhibitor, full curve, poor fit]
4 | CCn1nnnc1NCc1ccc(OCc2ccc(F)cc2Cl)c(OC)c1 | inconclusive: 0.657 µM [inhibitor, partial curve]
5 | CCOc1cccc(C2c3c(oc4ccccc4c3=O)C(=O)N2c2ccccn2)c1 (centres undefined) | inconclusive: 4.15 µM [inhibitor, single point]
6 | CCOc1cc(/C=N/NC(=O)c2cc(C)n(-c3ccc(F)cc3)c2C)ccc1O | inactive
7 | CCOc1ccc2nc(NCCCNC(=O)c3cc(OC)c(OC)c(OC)c3)c(C#N)cc2c1 | inconclusive: 11.7 µM [inhibitor, partial curve, poor fit]
8 | CCCn1c(SCc2ccon2)nc2ccccc2c1=O | inconclusive: 13.1 µM [inhibitor, single point]
9 | COc1ccc2cc3cc(C(=O)N4CCN(c5ccccn5)CC4)oc3nc2c1 | inconclusive: 16.5 µM [inhibitor, single point]
10 | COc1ccc(/C(C)=N/NC(=O)CN(c2ccc(OC)cc2)S(=O)(=O)c2ccccc2)cc1 | inactive
11 | CC(C)c1ccc(NC(=S)N2CCCC(c3ccc(F)cc3)=N2)cc1 | inconclusive: 16.5 µM [inhibitor, single point]
12 | COc1ccc(Cc2c(O)nc(SCC(C)C)[nH]c2=O)cc1 | inconclusive: 10.4 µM [inhibitor, single point]
13 | CCCNC(=O)c1ccc(COc2cccc3ccccc23)o1 | inconclusive: 10.4 µM [inhibitor, single point]
14 | NS(=O)(=O)c1ccc(CCNC(=O)CC(c2ccccc2)c2ccccc2)cc1 | inconclusive: 9.28 µM [inhibitor, single point]
15 | CCOC(=O)O[C@@H](C)OC(=O)[C@@H]1N2C(=O)[C@@H](NC(=O)[C@@H](N)c3ccccc3)[C@H]2SC1(C)C | inactive
16 | Cc1ccc(S(=O)(=O)Cn2nnnc2CN2CCN(Cc3ccc4c(c3)OCO4)CC2)cc1 | inconclusive: 5.86 µM [inhibitor, single point]
17 | Cc1c(C(=O)O)cccc1-c1ccc(C=O)o1 | inactive
18 | CC(C)(C)C(C(=O)O)N1CCS(=O)(=O)CC1 (centres undefined) | inconclusive: 11.7 µM [inhibitor, partial curve, poor fit]
19 | CC(=O)N1CCOc2ccc(S(=O)(=O)NCc3ccccc3Cl)cc21 | inconclusive: 7.38 µM [inhibitor, partial curve, poor fit]
20 | Cc1ccc(C(=O)NCC(=O)NCC(=O)OCc2ccc(Cl)cc2)cc1 | inconclusive: 18.5 µM [inhibitor, single point]
21 | COc1ccccc1NC(=O)CSc1nc(=O)n(Cc2ccncc2)c2c1CCCC2 | inconclusive: 3.29 µM [inhibitor, partial curve, poor fit]
22 | O=CN1N=C(c2ccccc2)CC1c1ccc(Cl)cc1 (centres undefined) | inconclusive: 3.29 µM [inhibitor, full curve, poor fit]
23 | CN(C)S(=O)(=O)Nc1cc(F)cc(F)c1 | inactive

Molecules shown so far containing a COOH group (2):
Row | SMILES | Potency
17 | Cc1c(C(=O)O)cccc1-c1ccc(C=O)o1 | inactive
18 | CC(C)(C)C(C(=O)O)N1CCS(=O)(=O)CC1 (centres undefined) | inconclusive: 11.7 µM [inhibitor, partial curve, poor fit]

Continued.

Row | SMILES | Potency
24 | CCOC(=O)c1cc(S(=O)(=O)NCCc2ccc(OC)c(OC)c2)cn1C | active: 13.1 µM
25 | O=C(CN1CCCC1)Nc1ccc(F)c(Cl)c1 | inconclusive: 16.5 µM [inhibitor, partial curve, poor fit]
26 | COc1cc(C)c(S(=O)(=O)NOCc2ccc([N+](=O)[O-])cc2)c(C)c1C | inconclusive: 18.5 µM [inhibitor, single point]
27 | COc1cc(NC(=O)c2ccccc2)c(OC)cc1NC(=O)Cc1ccc(F)cc1 | inconclusive: 9.28 µM [inhibitor, single point]
28 | CC1Cc2ccccc2N1C(=O)CN1C(=O)NC(C)(CCc2ccccc2)C1=O (centres undefined) | inconclusive: 9.28 µM [inhibitor, single point]
29 | O=C(CSc1nc2ccccc2n1CC(=O)N1CCCC1)NCc1ccc2c(c1)OCO2 | inconclusive: 11.7 µM [inhibitor, partial curve, poor fit]
30 | Cc1c(C)c2ccc(OCC(=O)N3CCOCC3)c(C)c2oc1=O | inactive
31 | CCC(CC)C(=O)c1c[nH]c(C(=O)NCc2cccs2)c1 | inactive
32 | CCCc1cc(=O)[nH]c2nnc(SCC(=O)Nc3ccc4c(c3)OCCO4)n12 | inactive
33 | COCCN(C(=O)CC1C(=O)NCCN1CC(c1ccccc1)c1ccccc1)C(C)C (centres undefined) | active: 10.4 µM
34 | COc1cc(C)c(C(=O)Oc2cc(C)c(C(=O)O)c(O)c2C)c(OC)c1C | inconclusive: 10.4 µM [inhibitor, single point]
35 | O=C(Nc1ccc(-c2nc3cccnc3s2)cc1)C1CCCO1 (centres undefined) | inactive
36 | CCN1CCN(C(=O)C2CCN(c3nnc(C)c4c(C)n(-c5ccc(C)cc5)nc34)CC2)CC1 | inconclusive: 1.31 µM [inhibitor, full curve]
37 | COC(=O)c1ccc(Nc2cc(C)nc3ccccc23)cc1 | inactive
38 | O=C1c2ccccc2C(=O)N1Cc1ccco1 | inconclusive: 18.5 µM [inhibitor, single point]
39 | COc1cc2c(c(OC)c1OC)-c1ccc(OC)c(=O)cc1C(NC(C)=O)CC2 (centres undefined) | inactive
40 | COc1ccccc1C(=O)Nc1ccccc1C(=O)NC1CCCCC1 | inactive
41 | c1ccc(-c2ccc(CN3C[C@@H]4C(c5ccccc5)C5(c6ccccc6)CC4(C5)[C@H]3c3ccccc3)cc2)cc1 (some centres undefined) | inconclusive: 9.28 µM [inhibitor, partial curve, poor fit]
42 | CCOc1ccc(Br)c(C2(O)CC(C)N(C)CC2C)c1 (centres undefined) | inconclusive: 18.5 µM [inhibitor, single point]
43 | CC1CCCN(C(c2cccs2)c2nnnn2Cc2ccccc2)C1 (centres undefined) | inconclusive: 18.5 µM [inhibitor, single point]
44 | COc1cc(OC)c(NC(=O)CCc2nc(-c3ccc(C)cc3)no2)cc1Cl | inconclusive: 0.0738 µM [inhibitor, full curve, poor fit]
45 | Cc1nn(Cc2ccccc2Cl)c2sc(C(=O)NC(C)(C)C)cc12 | inconclusive: 13.1 µM [inhibitor, partial curve, poor fit]
46 | O=C(c1cccc(Br)c1)N1CCN(c2cnn(-c3ccccc3)c(=O)c2Cl)CC1 | inconclusive: 11.7 µM [inhibitor, single point]

Row | SMILES | Potency
47 | O=C(NN=C1CCCC1)c1ccccc1[N+](=O)[O-] | inconclusive: 10.4 µM [inhibitor, single point]
48 | Cc1ccccc1N1C(=O)C(Cl)=C(N2CCOCC2)C1=O | inactive
49 | Cc1ccc(S(=O)(=O)N(CC(=O)Nc2ccccc2C(=O)O)c2ccccc2C)cc1 | inconclusive: 7.38 µM [inhibitor, partial curve]
50 | O=C(c1ccc(Cl)c(S(=O)(=O)N2CCCCC2)c1)N1CCCC(C(F)(F)F)C1 (centres undefined) | inconclusive: 14.7 µM [inhibitor, single point]
51 | CN1CCN(Cc2nc(N)nc(Nc3ccc4c(c3)OCCO4)n2)CC1 | inactive
52 | O=C(c1ccccc1)N1CCCCC(S(=O)(=O)c2ccccc2)C1=O (centres undefined) | inactive
53 | O=C(O)C1CN(C(=O)c2cccc(Br)c2)C1 | inactive
54 | COc1cc(CC(=O)Nc2ccc(N3CCOCC3)cc2)cc(OC)c1OC | inconclusive: 18.5 µM [inhibitor, single point]
55 | O=C(N/N=C\c1cc2c(cc1Cl)OCO2)c1cccnc1 | inconclusive: 18.5 µM [inhibitor, single point]
56 | Cc1[nH]c2ccc(C(=O)Nc3ccncc3)cc2c1C | active: 11.7 µM
57 | CC(=O)c1ccc(C(=O)N2CCCC(CO)(Cc3ccccc3C)C2)s1 (centres undefined) | inconclusive: 11.7 µM [inhibitor, single point]
58 | O=C(NCCCN1CCOCC1)c1ccc2c(=O)n(Cc3ccccc3)c(=S)[nH]c2c1 | inconclusive: 1.85 µM [inhibitor, full curve]
59 | Cc1ccc2nc3sc(C(=O)Nc4ccc(N5CCOCC5)cc4)c(N)c3cc2c1 | inconclusive: 11.7 µM [inhibitor, single point]
60 | C=C(C)c1cccc(C(C)(C)NC(=O)N2CCN(c3ccccc3OC)CC2)c1 | inconclusive: 3.29 µM [inhibitor, partial curve, poor fit]
61 | O=C(CCCN1C(=O)/C(=C/c2ccccc2Cl)SC1=S)Nc1ccccn1 | inconclusive: 2.62 µM [inhibitor, single point]
62 | CCOC(=O)CSC1=Nc2ccccc2C2=NC(CC(=O)NCc3cccs3)C(=O)N12 (centres undefined) | inconclusive: 8.28 µM [inhibitor, partial curve]
63 | O=C(NCc1ccc(Cl)cc1)c1nccnc1CO | inactive
64 | COc1ccc(C(=O)NC(=S)Nc2ccc(Cc3ccncc3)cc2)cc1 | inactive
65 | N#C/C(=C\c1ccccc1)C(=O)Nc1cc(S(=O)(=O)N2CCOCC2)ccc1N1CCCC1 | inconclusive: 10.4 µM [inhibitor, single point]
66 | CSc1ccc(CN2CCCC(CNC(=O)c3ccc(F)cc3)C2)cc1 (centres undefined) | inconclusive: 10.4 µM [inhibitor, single point]
67 | COc1cc2c(cc1OC)/C(=C/C#N)NC(C)(C)C2 | inconclusive: 11.7 µM [inhibitor, single point]
68 | O=C(COc1ccc(C(=O)NCC2CCCO2)cc1)Nc1cccc(C(F)(F)F)c1 (centres undefined) | inconclusive: 10.4 µM [inhibitor, single point]
69 | CN(CC(=O)Nc1c(Cl)cccc1Cl)C(=O)c1cc(S(=O)(=O)N(C)C)ccc1N1CCCC1 | inconclusive: 9.28 µM [inhibitor, single point]

Some of the entries so far, field by field:
O=C(c1ccc(Cl)c(S(=O)(=O)N2CCCCC2)c1)N1CCCC(C(F)(F)F)C1 (centres undefined)
  Potency: inconclusive: 14.7 µM [inhibitor, single point]
CN1CCN(Cc2nc(N)nc(Nc3ccc4c(c3)OCCO4)n2)CC1
  Potency: inactive

Sorted by molar mass (low to high): part of the list above.
Row | SMILES | Potency
51 | CN1CCN(Cc2nc(N)nc(Nc3ccc4c(c3)OCCO4)n2)CC1 | inactive
60 | C=C(C)c1cccc(C(C)(C)NC(=O)N2CCN(c3ccccc3OC)CC2)c1 | inconclusive: 3.29 µM [inhibitor, partial curve, poor fit]
49 | Cc1ccc(S(=O)(=O)N(CC(=O)Nc2ccccc2C(=O)O)c2ccccc2C)cc1 | inconclusive: 7.38 µM [inhibitor, partial curve]

— PubChem BioAssay AID504834 (National Center for Advancing Translational Sciences (NCATS), 2011)
